The target in the assay is recombinant CSEP0064/BEC1054 (mature form, residues 22-118) (Blumeria graminis f.sp. hordei) (UniProt N1JJ94). The assay can be described thus: 1H-15N HSQC NMR spectrum; 15N,13C-labelled protein at 300 μM in 20 mM phosphate pH 7.0, 150 mM NaCl, 10% 2H2O, 308 K, 600 MHz; both purified.

One molecule from article PMC6464244, “The fungal ribonuclease-like effector protein CSEP0064/BEC1054 represses plant immunity and interferes with degradation of host ribosomal RNA” can be followed below.

These are yes or no findings as the source states them, for the method shown.

B1: recombinant CSEP0064/BEC1054 (mature form, residues 22-118) (protein, UniProt N1JJ94 22-118)
chain: AAYWDCDGTEIPERNVRAAVVLAFNYRKESFHGYPATFIIGSTFSGVGEVRQFPVEDSDANWQGGAVKYYILTNKRGSYLEVFSSVGSGNKCTFVEG
As for B1, the binding result is listed as “no binding (tested: 300 μM)”.
